No constants are given. Whether binding was seen depends on the method and setting. Binding seen in cells or lysates may run through a third protein. Some entries that bind do so weakly or less than the wild type.

By UniProt entry, the sequences of proteins in these tests, tags left out. Where a name states a change or a piece, a line headed by the entry shows the natural chain unless it says otherwise. Chains listed by the source or under a name are the forms on record and can include a tag or linker.
TDRD3 (co-IP with MCL-1, Supplementary Figure S4A) (Q9H7E2, form named): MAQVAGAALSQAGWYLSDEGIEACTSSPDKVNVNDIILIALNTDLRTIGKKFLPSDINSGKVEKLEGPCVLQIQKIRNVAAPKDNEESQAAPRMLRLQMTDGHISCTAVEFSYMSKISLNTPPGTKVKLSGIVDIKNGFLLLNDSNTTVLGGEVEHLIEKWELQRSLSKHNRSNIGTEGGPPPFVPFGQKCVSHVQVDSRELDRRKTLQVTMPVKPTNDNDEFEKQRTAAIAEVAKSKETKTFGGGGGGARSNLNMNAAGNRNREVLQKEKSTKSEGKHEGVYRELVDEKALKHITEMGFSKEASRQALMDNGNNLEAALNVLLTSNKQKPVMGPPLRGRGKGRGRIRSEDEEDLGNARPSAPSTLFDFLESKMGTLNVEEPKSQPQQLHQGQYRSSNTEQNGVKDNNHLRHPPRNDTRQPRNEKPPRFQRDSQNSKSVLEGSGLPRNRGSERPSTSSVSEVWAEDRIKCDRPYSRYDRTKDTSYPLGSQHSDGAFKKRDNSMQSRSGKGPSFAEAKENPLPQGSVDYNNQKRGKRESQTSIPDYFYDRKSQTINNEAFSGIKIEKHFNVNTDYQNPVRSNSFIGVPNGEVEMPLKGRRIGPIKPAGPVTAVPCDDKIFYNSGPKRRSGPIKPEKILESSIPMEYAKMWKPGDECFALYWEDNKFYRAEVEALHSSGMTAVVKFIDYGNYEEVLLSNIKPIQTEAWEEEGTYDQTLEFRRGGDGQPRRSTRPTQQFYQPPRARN
UniProt Q07820: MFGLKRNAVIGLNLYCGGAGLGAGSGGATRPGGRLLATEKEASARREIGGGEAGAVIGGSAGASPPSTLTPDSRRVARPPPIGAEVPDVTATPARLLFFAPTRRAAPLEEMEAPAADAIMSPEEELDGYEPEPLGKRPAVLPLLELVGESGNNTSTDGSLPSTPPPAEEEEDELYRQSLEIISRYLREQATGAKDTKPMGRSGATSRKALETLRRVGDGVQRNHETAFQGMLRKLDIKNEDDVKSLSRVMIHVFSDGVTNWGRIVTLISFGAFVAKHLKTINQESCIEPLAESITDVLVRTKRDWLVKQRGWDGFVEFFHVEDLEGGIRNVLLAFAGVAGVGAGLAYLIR

This assay has as its target TDRD3 (co-IP with MCL-1, Supplementary Figure S4A) (UniProt Q9H7E2). The assay is described as follows: co-IP; from cells; Supplementary Figure S4A, details not shown.

As for “myeloid cell leukemia protein 1 (MCL-1) (from UniProt Q07820 1-350)”, the binding result was “binds”.
